PubChem BioAssay AID1224826, NIAID – 2016
Purpose: 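Regulators of Tlr4 signalling leading to Tnf-alpha expression in macrophages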 (primary screen). System: RAW264.7 G9 macrophages from mouse bearing reporters for p65 (GFP) and the Tnf promoter (mCherry). Reagent: siRNA pool against mouse genes, 100 nM. Duration: 16 h of LPS stimulation, after 2 days of siRNA transfection. Conditions: bacterial lipopolysaccharide (Salmonella minnesota R595), 10 ng/ml. Measured: 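Nuclear mCherry signal of the Tnf promoter reporter measured by imaging after background removal, scaled to each plate median and turned into robust z-scores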. Scale: Tnf reporter robust z-score: higher = stronger Tnf promoter reporter signal after LPS. Call rule: 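Called active when robust z-score is at most -1.3, matching the median of the Tlr4 knock-down control, or over 3; control wells and wells with under 50 cells never active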. Calls: active = Tnf reporter clearly lowered or raised; inactive = no clear change in Tnf reporter.
In all, the deposit lists about 17,000 reagents; shown is a random part of them. About 1,110 of them (6.6%) were called active. 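Active means lowered or raised reporter signal; replicate intensities are raw and not normalised per plate.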 A number with no mark means an inactive call. Further read-outs or replicates are left out here.

gene knocked down	PubChem SID	Tnf reporter robust z-score	fewer than 50 cells in well
Crp	SID315466131	0.15	enough cells in well
Irf2bp1	SID315480967	-1.89 (active)	enough cells in well
Rps13	SID315473391		fewer than 50 cells per well; well left out of calls
E2f4	SID315476439	-0.08	enough cells in well
Spink12	SID315475546	0.55	enough cells in well
Nfkbil1	SID315468161	-0.22	enough cells in well
Fbp1	SID315466637	0.64	enough cells in well
Mecp2	SID315467889	-0.99	enough cells in well
Adgrf5	SID315478371	-1	enough cells in well
Rundc3b	SID315479653	-0.11	enough cells in well
Ss18l1	SID315480852	1.06	enough cells in well
1700041G16Rik	SID315474705	1.92	enough cells in well
Sycp3	SID315469546	2.27	enough cells in well
Rnf212	SID315481573	-0.47	enough cells in well
Atic	SID315476704	-0.55	enough cells in well
Kcna2	SID315467559	-0.15	enough cells in well
Or51f2	SID315480690		fewer than 50 cells per well; well left out of calls
Or52i2	SID315480398		fewer than 50 cells per well; well left out of calls
Abca8a	SID315478097	-0.88	enough cells in well
Npas1	SID315468219	-0.64	enough cells in well
Phf14	SID315475187		fewer than 50 cells per well; well left out of calls
Csgalnact1	SID315479154		fewer than 50 cells per well; well left out of calls
Kin	SID315467634	-0.58	enough cells in well
Ciapin1	SID315476771		fewer than 50 cells per well; well left out of calls
Ror1	SID315470441	-0.07	enough cells in well
Timm9	SID315470742	1.04	enough cells in well
Fbxo7	SID315473891	-0.51	enough cells in well
Prepl	SID315477823	-0.2	enough cells in well
Tfap2a	SID315469619	-0.64	enough cells in well
Il1a	SID315467442	1.27	enough cells in well
Cd93	SID315467779	2.12	enough cells in well
Fam149a	SID315477733	0.07	enough cells in well
Rbm3	SID315468913	1.26	enough cells in well
Mdk	SID315467880	-1.29	enough cells in well
P3h1	SID315471509	2.33	enough cells in well
Gab3	SID315477649	0.65	enough cells in well
Zfyve1	SID315478140		fewer than 50 cells per well; well left out of calls
Rps4x	SID315469045	-1.23	enough cells in well
Chst4	SID315470459	-0.58	enough cells in well
Fgr	SID315466682	-0.3	enough cells in well
B230219D22Rik	SID315475581	-0.82	enough cells in well
Oprk1	SID315468339	-0.55	enough cells in well
Sh3pxd2a	SID315466694	-0.12	enough cells in well
Sh3pxd2a	SID315481510		fewer than 50 cells per well; well left out of calls
Tent4b	SID315477877	-0.85	enough cells in well
A430033K04Rik	SID315479672	-0.08	enough cells in well
Dnajc5g	SID315478863		fewer than 50 cells per well; well left out of calls
Mmd2	SID315475076	0.21	enough cells in well
Tfpt	SID315473877	0.54	enough cells in well
Tlr8	SID315477215	-0.2	enough cells in well
Col4a2	SID315466057	2.27	enough cells in well
Slc39a11	SID315473905		fewer than 50 cells per well; well left out of calls
Thrap3	SID315478819	2.99	enough cells in well
Or10ak13	SID315479999	-1.38 (active)	enough cells in well
Slc16a3	SID315475734	1.01	enough cells in well
Slc30a5	SID315473705		fewer than 50 cells per well; well left out of calls
Syap1	SID315472798	0.88	enough cells in well
Rpgr	SID315469005	-1.14	enough cells in well
Cops7b	SID315470465	0.88	enough cells in well
Senp3	SID315475739	-1.6 (active)	enough cells in well
Nsmf	SID315471713	-1.74 (active)	enough cells in well
Or2v2	SID315480024	0.38	enough cells in well
Pramel7	SID315481690	0.72	enough cells in well
B230354K17Rik	SID315481220	0.87	enough cells in well
Myo18a	SID315481725	-0.72	enough cells in well
Tspo	SID315465689	2.55	enough cells in well
Ptgis	SID315468779	-0.94	enough cells in well
Gphr	SID315473091	-1.42 (active)	enough cells in well
Tacr1	SID315469567	-0.83	enough cells in well
Taf1b	SID315469571	0.68	enough cells in well
Vps54	SID315479848	-0.1	enough cells in well
Dsn1	SID315472726	0.25	enough cells in well
Adap2	SID315478063	-0.48	enough cells in well
Calcb	SID315477070	-0.34	enough cells in well
Dmrta1	SID315479622	-0.88	enough cells in well

Part of the list above, reformatted.
{"gene knocked down": "Rps13", "PubChem SID": "SID315473391", "fewer than 50 cells in well": "fewer than 50 cells per well; well left out of calls"}
{"gene knocked down": "E2f4", "PubChem SID": "SID315476439", "Tnf reporter robust z-score": -0.08, "fewer than 50 cells in well": "enough cells in well"}
{"gene knocked down": "Spink12", "PubChem SID": "SID315475546", "Tnf reporter robust z-score": 0.55, "fewer than 50 cells in well": "enough cells in well"}
{"gene knocked down": "Nfkbil1", "PubChem SID": "SID315468161", "Tnf reporter robust z-score": -0.22, "fewer than 50 cells in well": "enough cells in well"}
